In PMC12078756:
These are yes or no findings as the source states them, for the method shown. Binding seen in cells or lysates may run through a third protein. Some results given as binding are weak or reduced against the parent protein; the word gives no strength. Where a sequence is shown, tags or fusion partners need not be part of it.

The chains behind the UniProt entries cited, without tags or fusion partners. Where a name states a change or a piece, a line headed by the entry shows the natural chain unless it says otherwise. A line that says so, or that is headed by a name, gives the form on record, which may keep a tag or linker.
GFP-tagged IFT20 (intraflagellar transport protein 20) (Q8IY31, form named): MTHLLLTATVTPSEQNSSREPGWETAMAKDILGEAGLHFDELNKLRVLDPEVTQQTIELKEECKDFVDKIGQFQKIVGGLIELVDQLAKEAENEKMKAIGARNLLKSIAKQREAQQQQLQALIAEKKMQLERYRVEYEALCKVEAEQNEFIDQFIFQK

Biological target: GFP-tagged IFT20 (intraflagellar transport protein 20) (human) (UniProt Q8IY31)
Assay: co-IP; exogenous GFP-IFT20 and HA-IFT88; lysate (10 mM Tris, 150 mM NaCl, 6 mM EDTA, 1 mM EGTA, 2% Triton X-100, 20% glycerol, 2 mM sodium pyrophosphate, pH 7.5) incubated with anti-GFP beads at 4°C overnight; immunoblotting

binding: binds
B1: HA-IFT88 (protein, UniProt Q13099-1 1-833)
chain: MKFTNTKVQMMQNVHLAPETDEDDLYSGYNDYNPIYDIEELENDAAFQQAVRTSHGRRPPITAKISSTAVTRPIATGYGSKTSLASSIGRPMTGAIQDGVTRPMTAVRAAGFTKAALRGSAFDPLSQSRGPASPLEAKKKDSPEEKIKQLEKEVNELVEESCIANSCGDLKLALEKAKDAGRKERVLVRQREQVTTPENINLDLTYSVLFNLASQYSVNEMYAEALNTYQVIVKNKMFSNAGILKMNMGNIYLKQRNYSKAIKFYRMALDQVPSVNKQMRIKIMQNIGVTFIQAGQYSDAINSYEHIMSMAPNLKAGYNLTICYFAIGDREKMKKAFQKLITVPLEIDEDKYISPSDDPHTNLVTEAIKNDHLRQMERERKAMAEKYIMTSAKLIAPVIETSFAAGYDWCVEVVKASQYVELANDLEINKAVTYLRQKDYNQAVEILKVLEKKDSRVKSAAATNLSALYYMGKDFAQASSYADIAVNSDRYNPAALTNKGNTVFANGDYEKAAEFYKEALRNDSSCTEALYNIGLTYEKLNRLDEALDCFLKLHAILRNSAEVLYQIANIYELMENPSQAIEWLMQVVSVIPTDPQVLSKLGELYDREGDKSQAFQYYYESYRYFPCNIEVIEWLGAYYIDTQFWEKAIQYFERASLIQPTQVKWQLMVASCFRRSGNYQKALDTYKDTHRKFPENVECLRFLVRLCTDLGLKDAQEYARKLKRLEKMKEIREQRIKSGRDGSGGSRGKREGSASGDSGQNYSASSKGERLSARLRALPGTNEPYESSSNKEIDASYVDPLGPQIERPKTAAKKRIDEDDFADEELGDDLLPE
